We go through three molecules from patent US20260258035A1, “FIVE-MEMBERED AND SIX-MEMBERED NITROGEN-CONTAINING COMPOUND, AND INTERMEDIATE, PREPARATION METHOD AND USE THEREOF” (HANGZHOU SYNRX THERAPEUTICS BIOMEDICAL TECHNOLOGY CO., LTD., priority 2022, published 2026).

Amino acid sequences for entries named in this document (tags omitted).
UniProt Q86W56, whole entry: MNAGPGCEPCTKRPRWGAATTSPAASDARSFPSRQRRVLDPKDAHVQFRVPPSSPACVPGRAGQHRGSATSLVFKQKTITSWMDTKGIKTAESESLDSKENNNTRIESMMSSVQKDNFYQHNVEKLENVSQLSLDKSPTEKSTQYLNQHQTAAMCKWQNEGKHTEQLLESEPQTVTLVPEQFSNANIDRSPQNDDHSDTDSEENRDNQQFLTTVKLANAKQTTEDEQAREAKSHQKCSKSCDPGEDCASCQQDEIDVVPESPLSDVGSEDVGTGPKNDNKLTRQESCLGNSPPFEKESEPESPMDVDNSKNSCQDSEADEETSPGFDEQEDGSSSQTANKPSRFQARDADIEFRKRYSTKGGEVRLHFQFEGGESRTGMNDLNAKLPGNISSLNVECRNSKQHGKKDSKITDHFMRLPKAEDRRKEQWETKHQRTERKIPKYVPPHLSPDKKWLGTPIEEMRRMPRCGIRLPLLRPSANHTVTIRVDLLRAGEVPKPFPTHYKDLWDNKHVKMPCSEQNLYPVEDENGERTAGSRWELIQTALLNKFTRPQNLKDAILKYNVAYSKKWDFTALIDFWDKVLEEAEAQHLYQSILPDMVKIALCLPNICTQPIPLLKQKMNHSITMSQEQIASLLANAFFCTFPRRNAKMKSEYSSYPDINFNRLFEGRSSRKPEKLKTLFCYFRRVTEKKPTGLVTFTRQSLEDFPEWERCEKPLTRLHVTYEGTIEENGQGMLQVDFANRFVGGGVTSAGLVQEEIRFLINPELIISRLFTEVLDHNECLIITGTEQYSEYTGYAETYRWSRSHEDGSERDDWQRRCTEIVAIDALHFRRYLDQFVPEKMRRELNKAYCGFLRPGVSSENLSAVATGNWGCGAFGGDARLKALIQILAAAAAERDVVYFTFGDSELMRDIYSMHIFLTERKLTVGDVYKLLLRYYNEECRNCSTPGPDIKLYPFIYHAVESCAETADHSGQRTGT

Values joined by “and” are separate entries in the source; they are usually repeats but may differ in a detail not shown here. Equal entries are not always repeated. Where two headings read alike, the source gives them in different places. Structures were worked out from names or drawings and are uncertain.

Assay [1] relates to Human breast squamous carcinoma cells HCC1806. Briefly: Cell function assay (In-Cell Western, PAR/pADPr after MMS). It is filed as cell-based. The following applies: read-out: IC50 (nM) in cell function assay. How it is done: 2. Cell Function Assay (In-Cell Western)
• 1) Human breast squamous carcinoma cells HCC1806 (ATCC) were seeded to the 384-well plate (Corning, #3764) at 20,000 cells/well, incubated for 24 h in a CO2 (5%) incubator at 37° C. to allow for complete adherence of the cells; • 2) 120 nL compounds or DMSO were added to the 384-well plate by Echo 550 (LABCYTE, #550) (final concentrations of compounds: 30000 nM, 10000 nM, 3000 nM, 1000 nM, 300 nM, 100 nM, 30 nM, 10 nM, 3 nM, 1 nM, 0 nM), and then the cells were incubated for 1 h in a CO2 (5%) incubator at 37° C.; • 3) 40 nL MMS (methyl mesylate, Sigma, #129925)(final concentration: 0.5 mM) was added to the plate by Echo 550, and the cells were treated for 1 h in a CO2 (5%) incubator at 37° C. […]

The target in another assay is PARG (Homo sapiens, UniProt Q86W56). Briefly: Biochemical assay (PARG, TFMU-ADPr substrate). The following applies: read-out: IC50 (nM) in biochemical assay.
In another assay the test system is HCC1806. Briefly: Cell viability assay (CellTiter-Glo). In kind it is cell-based, Human. As to conditions: read-out: IC50 (nM) in cell viability assay, HCC1806, 7 days. How it is done:
• 1) HCC1806 (Nanjing Cobioer, ATCC cell bank, 200 cells/well) was plated in the 96-well plate, and incubated for 24 h in a CO2 (5%) incubator at 37° C. to allow for complete adherence of the cells; • 2) media (100 L/well) containing the compounds (final concentrations of compounds: 30000 nM, 10000 nM, 3000 nM, 1000 nM, 300 nM, 100 nM, 30 nM, 10 nM, 3 nM, 1 nM, 0 nM) were added to the cells, and then, incubated for 7 days in the C02 (50%) incubator at 37° C.; • 3) the culture plate containing the cells was held at room temperature for 30 min to equilibrate the plate and its contents to room temperature; • 4) CellTiter-Glo (Promega: V9101) reagent (100 μL/well) was added to each well of cells, and the contents were mixed on an orbital shaker for 2 minutes; • 5) the plate was incubated at room temperature for 10 min to stabilize the signal, and detected by the microplate reader (Thermo: VarioskanLUX); • 6) data were analyzed using GraphPad software to determine the IC50.
A general note: In ATP-based viability assays light output follows the ATP content of the culture.

Setting [2] is: 4 nM PARG, 66.2 uM TFMU-ADPr, 3 min at room temperature.

A word on the IC50: it is the point on the concentration scale where inhibition reaches its midpoint. `CC(C)C(=O)N1CCN(c2cc(S(=O)(=O)NC3(C)CCC3)cn3c(-c4nnc(C(F)F)s4)ncc23)CC1`: the IC50 is 324 nM in assay [1] (HCC1806, In-Cell Western, MMS treatment); 100 to 500 nM in assay [1] (HCC1806, compound 1 h then 0.5 mM MMS 1 h, PAR/pADPr antibody, In-Cell Western); < 100 nM at PARG (setting [2]); 3.92 nM at PARG (PARG, TFMU-ADPr substrate); 5000 to 30000 nM and 9890 nM in the assay with HCC1806.

With `CC1(O)CCN(c2cc(S(=O)(=O)NC3(C)COC3)cn3c(-c4nnc(C(F)F)s4)ncc23)CC1`, the 50% inhibitory concentration (IC50) on PARG (setting [2]) is < 100 nM; at PARG (PARG, TFMU-ADPr substrate), 32.9 nM.

Take `COc1ccc(-c2cc(S(=O)(=O)NC3(C#N)CC3)cn3c(-c4nnc(C(F)F)s4)ncc23)cn1`: the concentration for half-maximal inhibition (IC50) on PARG (setting [2]) was < 100 nM; at PARG (PARG, TFMU-ADPr substrate), 38.4 nM.
